Source: article PMC9396447
No constants are given. Whether binding was seen depends on the method and setting. In cells and extracts the contact can be indirect. Some results given as binding are weak or reduced against the parent protein; the word gives no strength.

Chains of the proteins cited; added tags and fusions are not shown. Lines headed by an entry give the natural chain unless they say otherwise; changes in a name come on top. Residues count along the entry.
UniProt Q16595: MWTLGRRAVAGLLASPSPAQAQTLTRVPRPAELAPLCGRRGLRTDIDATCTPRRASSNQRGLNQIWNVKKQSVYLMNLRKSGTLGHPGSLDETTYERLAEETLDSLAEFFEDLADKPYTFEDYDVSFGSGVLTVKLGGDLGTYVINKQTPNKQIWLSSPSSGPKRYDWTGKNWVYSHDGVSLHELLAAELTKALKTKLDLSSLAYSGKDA
human frataxin intermediate form (6XHis-frataxin^42–210): residues 42-210 of Q16595
human mature frataxin (frataxin^81–210-6XHis): residues 81-210 of Q16595
UniProt Q9D0K2, residues 40-520: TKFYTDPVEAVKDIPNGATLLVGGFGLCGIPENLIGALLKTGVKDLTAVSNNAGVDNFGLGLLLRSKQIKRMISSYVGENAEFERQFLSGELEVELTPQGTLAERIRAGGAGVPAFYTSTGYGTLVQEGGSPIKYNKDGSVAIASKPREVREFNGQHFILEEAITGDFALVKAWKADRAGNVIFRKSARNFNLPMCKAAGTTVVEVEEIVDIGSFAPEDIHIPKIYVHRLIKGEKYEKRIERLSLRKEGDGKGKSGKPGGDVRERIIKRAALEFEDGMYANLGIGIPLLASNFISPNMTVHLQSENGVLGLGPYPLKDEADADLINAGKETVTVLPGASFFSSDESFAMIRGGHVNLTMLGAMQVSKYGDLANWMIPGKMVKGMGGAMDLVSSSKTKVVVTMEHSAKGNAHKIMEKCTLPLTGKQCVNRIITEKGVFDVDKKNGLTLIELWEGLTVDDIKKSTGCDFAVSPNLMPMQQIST

Experiments:
[1] = target: human frataxin intermediate form (6XHis-frataxin^42–210) (human) (UniProt Q16595); assay: pull-down; purified recombinant 6XHis-tagged human frataxin forms as bait, mouse cortical homogenates; blot for OXCT1; beads-only control; only the target purified
[2] = target: human mature frataxin (frataxin^81–210-6XHis) (human) (UniProt Q16595); assay: as above
[3] = target: T1, frataxin (endogenous, mouse cortex / cultured cortical neurons) (mouse (endogenous in mouse cortex)) (UniProt O35943); assay: co-IP; mouse cortical (brain) homogenates; anti-frataxin antibody (Abcam) overnight at 4°C, protein G beads 2 h at 4°C, four washes with RIPA buffer; blot; control IgG
T1 sequence: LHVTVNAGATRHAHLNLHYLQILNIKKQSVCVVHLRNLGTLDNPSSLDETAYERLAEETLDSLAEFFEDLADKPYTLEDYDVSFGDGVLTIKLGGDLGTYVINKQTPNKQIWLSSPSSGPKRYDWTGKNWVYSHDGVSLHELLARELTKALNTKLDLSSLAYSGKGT

[4] = target: T1, frataxin (endogenous, mouse cortex / cultured cortical neurons) (mouse (endogenous in mouse cortex)); assay: co-IP; cultured mouse cortical neuronal lysates; anti-frataxin antibody (Abcam) overnight at 4°C, protein G beads 2 h at 4°C, four washes with RIPA buffer; blot; control IgG

Measured: binding

3-Oxoacid CoA-Transferase 1 (OXCT1), endogenous, mouse cortex / cultured cortical neurons (from UniProt Q9D0K2 40-520) (enzyme)
binds: all assays above
